Laboratory results as given in article PMC11087256.
Results are given in words; binding and its absence hold for the method and conditions named. In cells and extracts the contact can be indirect. These calls come from enrichment with a bait or labelling near it, and not all partners need be listed.

Chains of the proteins cited; added tags and fusions are not shown.
UniProt Q7Z739: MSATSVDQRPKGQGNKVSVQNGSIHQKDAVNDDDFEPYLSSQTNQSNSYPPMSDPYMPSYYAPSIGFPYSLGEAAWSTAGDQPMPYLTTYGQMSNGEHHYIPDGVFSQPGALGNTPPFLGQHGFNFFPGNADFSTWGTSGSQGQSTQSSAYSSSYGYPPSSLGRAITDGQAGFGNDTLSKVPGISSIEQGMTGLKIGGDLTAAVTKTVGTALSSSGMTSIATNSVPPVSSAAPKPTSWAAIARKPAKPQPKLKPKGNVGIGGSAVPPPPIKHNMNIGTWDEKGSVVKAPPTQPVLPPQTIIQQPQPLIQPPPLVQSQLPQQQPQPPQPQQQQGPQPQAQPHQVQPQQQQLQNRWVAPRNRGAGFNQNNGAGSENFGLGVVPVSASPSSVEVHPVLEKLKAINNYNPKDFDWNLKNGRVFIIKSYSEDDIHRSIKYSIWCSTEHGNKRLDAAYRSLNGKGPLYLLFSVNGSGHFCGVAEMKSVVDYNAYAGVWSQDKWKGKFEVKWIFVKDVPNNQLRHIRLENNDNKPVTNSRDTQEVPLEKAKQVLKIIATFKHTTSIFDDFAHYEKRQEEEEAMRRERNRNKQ
UniProt P17844: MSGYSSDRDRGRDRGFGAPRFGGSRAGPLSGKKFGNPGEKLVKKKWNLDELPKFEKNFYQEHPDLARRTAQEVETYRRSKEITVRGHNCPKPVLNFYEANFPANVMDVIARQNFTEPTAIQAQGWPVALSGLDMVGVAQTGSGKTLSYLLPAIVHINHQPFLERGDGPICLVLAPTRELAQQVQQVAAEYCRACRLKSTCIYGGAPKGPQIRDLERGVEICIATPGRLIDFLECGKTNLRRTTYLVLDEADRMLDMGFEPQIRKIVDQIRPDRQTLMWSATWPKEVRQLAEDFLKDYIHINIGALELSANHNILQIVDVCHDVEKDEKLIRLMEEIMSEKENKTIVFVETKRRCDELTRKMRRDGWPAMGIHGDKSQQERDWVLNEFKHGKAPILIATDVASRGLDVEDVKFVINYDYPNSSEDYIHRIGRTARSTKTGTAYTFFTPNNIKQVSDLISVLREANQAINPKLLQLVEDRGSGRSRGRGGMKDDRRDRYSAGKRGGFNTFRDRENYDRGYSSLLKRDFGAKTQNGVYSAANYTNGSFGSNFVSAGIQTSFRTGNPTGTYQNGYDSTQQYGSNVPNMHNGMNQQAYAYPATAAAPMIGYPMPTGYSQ
UniProt Q92841: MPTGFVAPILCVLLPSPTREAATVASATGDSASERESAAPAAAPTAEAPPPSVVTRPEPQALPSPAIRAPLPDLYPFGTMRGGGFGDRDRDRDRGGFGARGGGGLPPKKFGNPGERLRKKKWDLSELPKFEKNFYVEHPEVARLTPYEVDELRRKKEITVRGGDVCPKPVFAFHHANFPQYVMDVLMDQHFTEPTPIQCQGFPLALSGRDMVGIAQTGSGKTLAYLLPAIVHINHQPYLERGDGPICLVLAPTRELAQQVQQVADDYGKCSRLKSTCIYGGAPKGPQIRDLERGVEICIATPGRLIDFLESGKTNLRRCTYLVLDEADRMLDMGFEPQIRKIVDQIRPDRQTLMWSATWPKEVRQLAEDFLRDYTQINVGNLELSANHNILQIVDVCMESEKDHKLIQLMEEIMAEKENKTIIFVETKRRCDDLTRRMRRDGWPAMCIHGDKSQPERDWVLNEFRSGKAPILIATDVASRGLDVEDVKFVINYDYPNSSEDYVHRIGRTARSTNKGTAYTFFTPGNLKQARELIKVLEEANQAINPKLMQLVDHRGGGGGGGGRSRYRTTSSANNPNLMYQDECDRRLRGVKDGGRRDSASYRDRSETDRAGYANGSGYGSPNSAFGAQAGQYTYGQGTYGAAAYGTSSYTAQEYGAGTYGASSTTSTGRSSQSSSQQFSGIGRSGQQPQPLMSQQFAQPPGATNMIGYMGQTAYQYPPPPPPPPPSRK

Tests used:
[1] = molecular target: YTH-domain family protein 3 (YTHDF3), endogenous (human (endogenous in HK1)) (UniProt Q7Z739); assay: affinity purification with mass spectrometry; endogenous YTHDF3 partners precipitated from HK1 cell lysates by YTHDF3 antibodies coupled to protein A/G beads; identified by mass spectrometry
TAP-YTHDF3^WT = TAP-YTHDF3^WT (UniProt Q7Z739); assay: affinity purification with mass spectrometry; HK1 cells stably expressing TAP-YTHDF3^WT (SBP-3HA); lysate extracted with excess streptavidin resin; eluate identified by mass spectrometry; TAP-vector as control

Substance	binding [1]	binding (TAP-YTHDF3^WT)
DEAD-box protein 5 (DDX5), endogenous (from UniProt P17844 1-614)	binds	binds
DDX17, endogenous (from UniProt Q92841 1-729)	binds	binds
